In assay [1] the target is T1, endogenous caspase-3 in ICC cells (human (endogenous in HuCCT1 and HuCCT1-R)) (UniProt P42574).
T1 sequence: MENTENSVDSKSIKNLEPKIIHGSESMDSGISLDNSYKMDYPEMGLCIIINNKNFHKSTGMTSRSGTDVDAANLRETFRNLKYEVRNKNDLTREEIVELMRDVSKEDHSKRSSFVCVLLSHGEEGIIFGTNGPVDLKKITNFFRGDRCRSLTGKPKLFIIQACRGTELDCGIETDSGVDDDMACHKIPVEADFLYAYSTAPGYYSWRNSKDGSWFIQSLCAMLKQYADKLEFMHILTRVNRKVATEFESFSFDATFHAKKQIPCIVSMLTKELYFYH
As to the kind of experiment: affinity purification with mass spectrometry; IP from Flag-NRXN3-overexpressing HuCCT1 cells with anti-Flag and anti-caspase-3 antibodies, normal IgG as negative control; LC-MS/MS.

Sequences of proteins named here, by UniProt entry; tags and fusion partners are left off. Residues count along the entry.
UniProt Q9Y4C0, residues 28-1643: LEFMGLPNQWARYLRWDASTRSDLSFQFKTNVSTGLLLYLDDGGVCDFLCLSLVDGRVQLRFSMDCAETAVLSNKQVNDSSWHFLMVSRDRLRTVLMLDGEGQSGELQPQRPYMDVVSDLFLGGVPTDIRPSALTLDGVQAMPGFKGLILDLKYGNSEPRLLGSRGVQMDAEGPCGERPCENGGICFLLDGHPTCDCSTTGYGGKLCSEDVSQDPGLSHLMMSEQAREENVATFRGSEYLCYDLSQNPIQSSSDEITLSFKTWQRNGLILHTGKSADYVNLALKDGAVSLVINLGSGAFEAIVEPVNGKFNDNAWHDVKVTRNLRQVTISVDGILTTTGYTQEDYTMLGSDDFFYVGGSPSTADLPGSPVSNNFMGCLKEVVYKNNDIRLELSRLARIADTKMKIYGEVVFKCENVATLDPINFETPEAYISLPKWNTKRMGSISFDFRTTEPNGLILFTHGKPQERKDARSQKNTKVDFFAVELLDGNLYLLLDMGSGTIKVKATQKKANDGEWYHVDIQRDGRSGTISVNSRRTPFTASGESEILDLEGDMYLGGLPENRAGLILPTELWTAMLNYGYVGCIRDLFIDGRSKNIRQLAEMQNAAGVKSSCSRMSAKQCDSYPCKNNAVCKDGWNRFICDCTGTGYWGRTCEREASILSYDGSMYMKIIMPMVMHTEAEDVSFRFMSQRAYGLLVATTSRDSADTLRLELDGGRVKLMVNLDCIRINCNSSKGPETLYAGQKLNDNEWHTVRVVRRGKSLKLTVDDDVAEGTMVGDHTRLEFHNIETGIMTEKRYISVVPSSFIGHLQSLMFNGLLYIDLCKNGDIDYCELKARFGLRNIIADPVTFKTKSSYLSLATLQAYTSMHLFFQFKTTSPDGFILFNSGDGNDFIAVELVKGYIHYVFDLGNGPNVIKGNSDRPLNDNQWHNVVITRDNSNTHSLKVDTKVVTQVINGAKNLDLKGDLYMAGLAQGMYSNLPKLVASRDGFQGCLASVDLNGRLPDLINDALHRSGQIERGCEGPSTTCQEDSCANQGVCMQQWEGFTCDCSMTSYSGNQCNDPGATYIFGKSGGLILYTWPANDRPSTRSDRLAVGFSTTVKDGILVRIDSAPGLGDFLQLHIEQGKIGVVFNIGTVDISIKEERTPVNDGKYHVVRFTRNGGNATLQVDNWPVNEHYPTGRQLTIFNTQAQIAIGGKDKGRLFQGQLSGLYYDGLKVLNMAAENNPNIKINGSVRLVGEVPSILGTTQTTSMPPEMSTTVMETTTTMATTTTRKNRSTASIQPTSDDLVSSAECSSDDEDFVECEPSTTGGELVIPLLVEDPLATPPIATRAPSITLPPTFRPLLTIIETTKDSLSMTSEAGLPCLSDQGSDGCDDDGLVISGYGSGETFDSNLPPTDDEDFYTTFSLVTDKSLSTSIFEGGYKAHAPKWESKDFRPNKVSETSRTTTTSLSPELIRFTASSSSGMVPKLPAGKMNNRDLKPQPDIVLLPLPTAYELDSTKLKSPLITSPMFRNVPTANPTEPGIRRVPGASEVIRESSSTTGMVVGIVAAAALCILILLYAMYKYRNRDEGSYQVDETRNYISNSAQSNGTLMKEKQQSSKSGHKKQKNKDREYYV
UniProt P63208: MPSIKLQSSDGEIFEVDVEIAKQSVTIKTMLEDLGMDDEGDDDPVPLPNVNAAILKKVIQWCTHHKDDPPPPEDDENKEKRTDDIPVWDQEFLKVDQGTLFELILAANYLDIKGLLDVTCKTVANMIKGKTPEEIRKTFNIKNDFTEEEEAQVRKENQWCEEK
UniProt Q15418: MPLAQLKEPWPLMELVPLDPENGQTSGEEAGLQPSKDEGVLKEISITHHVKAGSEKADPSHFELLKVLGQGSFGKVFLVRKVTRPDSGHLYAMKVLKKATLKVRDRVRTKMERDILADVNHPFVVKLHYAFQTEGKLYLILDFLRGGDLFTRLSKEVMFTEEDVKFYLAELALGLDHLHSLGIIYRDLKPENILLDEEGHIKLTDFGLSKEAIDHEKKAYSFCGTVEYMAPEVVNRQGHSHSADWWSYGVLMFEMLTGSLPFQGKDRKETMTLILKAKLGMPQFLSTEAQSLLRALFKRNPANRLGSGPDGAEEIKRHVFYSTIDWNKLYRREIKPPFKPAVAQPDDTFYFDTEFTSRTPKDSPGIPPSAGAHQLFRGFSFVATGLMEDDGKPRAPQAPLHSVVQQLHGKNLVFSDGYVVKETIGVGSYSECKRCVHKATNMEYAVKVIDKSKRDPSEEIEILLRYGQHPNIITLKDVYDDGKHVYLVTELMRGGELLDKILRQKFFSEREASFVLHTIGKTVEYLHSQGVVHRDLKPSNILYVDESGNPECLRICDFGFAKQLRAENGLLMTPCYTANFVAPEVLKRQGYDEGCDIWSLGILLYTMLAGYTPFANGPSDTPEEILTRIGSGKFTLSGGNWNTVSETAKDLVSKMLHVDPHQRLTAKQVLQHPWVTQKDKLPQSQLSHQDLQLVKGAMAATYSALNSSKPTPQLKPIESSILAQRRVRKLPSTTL

A further assay has as its target Flag-NRXN3 in ICC cells (UniProt Q9Y4C0). The assay is described as above.

Results are given in words; binding and its absence hold for the method and conditions named. In cells and extracts the contact can be indirect. A yes stands for co-enrichment or nearness to the bait. Other partners may have been found.

In the case of “endogenous Skp1 in HuCCT1 (from UniProt P63208 1-163)”, the binding result in assay [1] is “binds”.

As to “endogenous RSK1 in ICC cells (from UniProt Q15418 1-735) (enzyme)”, the binding result with Flag-NRXN3 in ICC cells was “binds”.
